Results deposited as PubChem BioAssay AID1053208 (Peter MacCallum Cancer Centre, 2014)

Purpose: 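Find knock-downs that sensitise mouse osteosarcoma cells to doxorubicin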 (primary screen)
System: mouse osteosarcoma cells, early-passage culture from an engineered mouse model of fibroblastic bone tumour
Reagent: siRNA pool against mouse genes, 40 nM
Duration: about 120 h (48 h before drug, then 72 h with drug)
Treatment: doxorubicin 100 nM for 72 h, roughly 30-40% inhibitory dose
Measurement: 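Luminescent ATP signal taken as viability with or without 100 nM doxorubicin for 72 h; mean of two wells set against non-targeting siRNA and turned into robust z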
Scale: viability z-score with doxorubicin and doxorubicin viability vs non-targeting: higher = more viable cells under doxorubicin; viability z-score without drug: higher = more viable cells with knock-down alone; z-score of drug to no-drug ratio: higher = less drug sensitisation by knock-down
Rule for the call: 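Called active if knock-down leaves viability unchanged without drug (z within -2 to 2) but lowers it with doxorubicin (z at or under -2)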
Shown is a random part of about 17,000 deposited reagents. 788 of them (4.7%) were called active. 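Calls rest on z-score classes alone; an extra cut-off of viability at most 70% of control was not applied to them.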

| target gene | PubChem SID | combined z-score class | viability z-score with doxorubicin | viability z-score without drug | z-score of drug to no-drug ratio | doxorubicin viability vs non-targeting | Call |
| --- | --- | --- | --- | --- | --- | --- | --- |
| Lancl2 | SID152263565 | no change with or without drug | -0.9 | 0.17 | -0.9 | 0.86 | inactive |
| Irak2 | SID152302048 | no change with or without drug | 0.34 | -0.84 | 1.12 | 0.97 | inactive |
| 9230110G02RIK | SID152276176 | high cell count with doxorubicin only | 2.02 | 0.34 | 1.91 | 1.12 | inactive |
| Wnt5b | SID152340460 | no change with or without drug | 0.45 | 0.67 | 0.11 | 0.98 | inactive |
| Klk11 | SID152272779 | no change with or without drug | -1.24 | -0.17 | -1.12 | 0.83 | inactive |
| Cyp17a1 | SID152265630 | no change with or without drug | 0.45 | -0.67 | 1.12 | 0.98 | inactive |
| Preb | SID152319464 | no change with or without drug | 1.57 | 0.84 | 1.12 | 1.08 | inactive |
| Emd | SID152278751 | no change with or without drug | 0 | -0.17 | 0.22 | 0.94 | inactive |
| Cdk18 | SID152296392 | no change with or without drug | -1.46 | -1.85 | -0.22 | 0.81 | inactive |
| Mrgpra3 | SID152296204 | no change with or without drug | -0.9 | -1.18 | 0 | 0.86 | inactive |
| Or5d43 | SID152327632 | no change with or without drug | -1.57 | -1.35 | -0.67 | 0.8 | inactive |
| Scamp5 | SID152301581 | no change with or without drug | -0.45 | -0.51 | 0 | 0.9 | inactive |
| Jam2 | SID152318937 | no change with or without drug | -1.91 | 0.51 | -2.14 | 0.77 | inactive |
| Nr1h5 | SID152338848 | no change with or without drug | 0.34 | 0 | 0.45 | 0.97 | inactive |
| Nup133 | SID152314069 | low cell count without drug only | -1.35 | -3.04 | 0.9 | 0.82 | inactive |
| Saa2 | SID152339540 | no change with or without drug | 1.35 | 0.17 | 1.35 | 1.06 | inactive |
| Mef2b | SID152326230 | no change with or without drug | -0.34 | 0.17 | -0.34 | 0.91 | inactive |

Copied from the entries so far (5 entries):
| target gene | PubChem SID | combined z-score class | viability z-score with doxorubicin | viability z-score without drug | z-score of drug to no-drug ratio | doxorubicin viability vs non-targeting | Call |
| --- | --- | --- | --- | --- | --- | --- | --- |
| Klk11 | SID152272779 | no change with or without drug | -1.24 | -0.17 | -1.12 | 0.83 | inactive |
| Cyp17a1 | SID152265630 | no change with or without drug | 0.45 | -0.67 | 1.12 | 0.98 | inactive |
| Preb | SID152319464 | no change with or without drug | 1.57 | 0.84 | 1.12 | 1.08 | inactive |
| Emd | SID152278751 | no change with or without drug | 0 | -0.17 | 0.22 | 0.94 | inactive |
| Cdk18 | SID152296392 | no change with or without drug | -1.46 | -1.85 | -0.22 | 0.81 | inactive |

Additional records:
| target gene | PubChem SID | combined z-score class | viability z-score with doxorubicin | viability z-score without drug | z-score of drug to no-drug ratio | doxorubicin viability vs non-targeting | Call |
| --- | --- | --- | --- | --- | --- | --- | --- |
| Synj2 | SID152292050 | no change with or without drug | 1.8 | 1.01 | 1.24 | 1.1 | inactive |
| Cyp39a1 | SID152335143 | no change with or without drug | 0.22 | 0.34 | 0.11 | 0.96 | inactive |
| Clrn3 | SID152339349 | no change with or without drug | 0 | 0.17 | 0 | 0.94 | inactive |
| Acap3 | SID152305146 | low cell count without drug only | -1.8 | -3.54 | 0.79 | 0.78 | inactive |
| Pou6f1 | SID152307994 | no change with or without drug | 1.12 | 0.84 | 0.67 | 1.04 | inactive |
| Ucma | SID152301336 | no change with or without drug | 0.9 | -0.17 | 1.24 | 1.02 | inactive |
| Calcr | SID152325804 | no change with or without drug | 0.34 | 1.35 | -0.45 | 0.97 | inactive |
| Gpr83 | SID152269984 | no change with or without drug | -1.35 | 0.51 | -1.57 | 0.82 | inactive |
| Fbxo7 | SID152287431 | no change with or without drug | -0.22 | 0.84 | -0.67 | 0.92 | inactive |
| Cela1 | SID152266129 | high without drug; low with doxorubicin | -4.72 | 2.19 | -5.62 | 0.52 | inactive |
| Smarce1 | SID152275227 | no change with or without drug | -1.57 | -0.84 | -1.01 | 0.8 | inactive |
| Magix | SID152326145 | low cell count with doxorubicin only | -2.59 | -1.85 | -1.46 | 0.71 | active |
| Tmem202 | SID152340070 | no change with or without drug | -1.01 | 1.85 | -2.02 | 0.85 | inactive |
| C4b | SID152277295 | no change with or without drug | 0.67 | 0.67 | 0.34 | 1 | inactive |
| Tph1 | SID152333274 | no change with or without drug | 0.67 | 0.17 | 0.67 | 1 | inactive |
| Tmem140 | SID152322955 | high cell count without drug only | 0.34 | 2.19 | -0.9 | 0.97 | inactive |
| Dhx30 | SID152275205 | no change with or without drug | 0.79 | 1.35 | 0 | 1.01 | inactive |
